In PubChem BioAssay AID504444 (National Center for Advancing Translational Sciences (NCATS), 2011):
About 7,500 (2.1%) of roughly 360,000 compounds were called active. The inconclusive results got no clear call from the source; some entries with a clear call stand among them for comparison. Calls follow the shape of the dose curve; as a rule, active = well fitted inhibition curve with a large enough effect; inconclusive = small, poorly fitted or top-dose-only effect, or effect the other way; inactive = flat fitted curve, though single readings scatter. Where the call is inconclusive, the potency comes from a doubtful curve fit.
% is scaled to controls: 0 for no effect and ±100 for the full control effect; potency is read from the fitted curve at half-maximal effect.

Assay: Nrf2 qHTS screen for inhibitors; also: nearly all actives have a fitted effect of over 60% in size
Conditions: A549 ARE-Fluc reporter, luciferase luminescence, 18-24 h; activity change, negative = inhibition: at 46 µM (top of the series)
Outline: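 Two sequential reads on A549 ARE_Fluc cells exposed to compound for 18-24 h: a CellTiter-Fluor fluorescence read for viability, then a luciferase luminescence read for Nrf2/ARE activity.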
For Cc1ccsc1C(=O)C1CCCN(CCO)C1 (configuration not stated), the Potency was inconclusive: 29.1 µM [activator, single point].
For CCN(CC)P(=O)(Nc1ccc([N+](=O)[O-])cc1)c1c(C)nn(CCC#N)c1NC(=O)c1ccc(Cl)cc1Cl (configuration not stated), the Potency was inconclusive: 14.6 µM [falling, single point].
With CCCCCn1c(=O)c(C(=O)NCc2ccccn2)c(O)c2ccccc21 the Potency was inconclusive: 25.9 µM [falling, single point].
For CCOC(=O)Cn1cc(C=C2C(=O)N(C)C(=O)N(C)C2=O)c2ccccc21, the “activity change, negative = inhibition” value was inactive: -7.97%.
For O=C1NC(=O)N(c2ccc3c(c2)OCO3)C(=O)/C1=C/c1ccc(N2CCCCC2)o1, the Potency was inconclusive: 16.4 µM [falling, partial curve, poor fit].
With C=CCn1c(O)c(C(C)=NCCC(c2ccccc2)c2ccccc2)c(=O)[nH]c1=O the “activity change, negative = inhibition” value was inactive: -17.4%.
For COc1ccc(-c2nc(CSCC(=O)N3CCN(c4ccc(F)cc4)CC3)c(C)o2)cc1, the Potency was active: 3.26 µM.
In the case of Cc1ccc(N(C)C(=O)Oc2ccc(C(=O)c3ccc(Cl)cc3)cc2)cc1, the Potency was inconclusive: 13 µM [falling, partial curve, poor fit].
In the case of CNC(=O)Oc1cc2c(cc1C(C)(C)C)CCC2, the Potency was inconclusive: 23.1 µM [activator, partial curve, poor fit].
For O=C(Nc1cccc(C(F)(F)F)c1)C1CCCN1S(=O)(=O)c1cccc2nsnc12 (configuration not stated), the Potency was inconclusive: 23.1 µM [falling, single point].
In the case of CN1CCC(OC(=O)Cc2ccccc2)CC1, the “activity change, negative = inhibition” value was inactive: -2.73%.
In the case of CC/C(=N\NC(=O)c1ccccc1)c1c(O)n(Cc2ccccc2)c(=O)[nH]c1=O, the Potency was inconclusive: 7.31 µM [activator, partial curve].
With O=c1[nH]c(O)c(N=Nc2ccc3c(c2)OCCO3)c(=O)[nH]1 the Potency was inconclusive: 10.3 µM [activator, partial curve, poor fit].
For COc1cccc(C2=NOC(C(=O)N3CCC4(CC3)OCCO4)C2)c1 (configuration not stated), the Potency was inconclusive: 10.3 µM [activator, partial curve].
With CCCCCCN=C(C)c1c(O)n(CCCC)c(=O)[nH]c1=O the Potency was inconclusive: 29.1 µM [falling, single point].
For CC(C)(C)c1nc(N2CCN(C(=O)c3ccco3)CC2)c2nnn(Cc3ccccc3Cl)c2n1, the Potency was active: 18.4 µM.
For CC12CC[C@H]3[C@@H](CCC4(O)C[C@H](O)CCC34/C=N/NC(=O)c3ccccc3[N+](=O)[O-])C1(O)CCC2C1=CC(=O)OC1 (some centres not stated), the Potency was active: 4.61 µM.
With CCOC(=O)C1(CCc2ccccc2)CCN(Cc2cccc3c2OCO3)CC1 the Potency was inconclusive: 2.91 µM [falling, partial curve, poor fit].
In the case of COC(=O)C1=C(c2ccc(-c3ccccc3)c(F)c2)C[C@@H]2CC[C@H]1N2C(=O)N1CCC(C)CC1, the Potency was active: 16.4 µM.
In the case of CC(C)(C)c1csc(NC(=O)Nc2ccccc2)n1, the Potency was inconclusive: 2.06 µM [activator, partial curve, poor fit].
With CCC(C)OC(=O)c1c(N)n(Cc2cccs2)c2nc3ccccc3nc12 (configuration not stated) the Potency was inconclusive: 23.1 µM [falling, single point].
For COc1ccc2c(c1)NP(=S)(Oc1ccccc1)N2 (configuration not stated), the Potency was inconclusive: 16.4 µM [activator, partial curve].
With Cc1ccc(-n2nc3c(N4CCC(C(=O)NCc5ccccc5Cl)CC4)nnc(C)c3c2C)cc1 the Potency was inconclusive: 14.6 µM [activator, partial curve, poor fit].
In the case of COC(=O)c1sc(NC(=O)/C=C/c2ccc(OC)c(OC)c2)c(C(=O)OC)c1C, the Potency was inconclusive: 3.66 µM [falling, partial curve, poor fit].
For N=c1c2c(n(Cc3ccc(Cl)cc3Cl)c3c1CCC3)CCCC2, the Potency was active: 13 µM.
In the case of COc1ccc(CN2Cc3cnnn3-c3ccccc3C2c2ccccc2)cc1 (configuration not stated), the Potency was inconclusive: 18.4 µM [falling, single point].
With O=C(Nc1ccccc1F)Oc1cccc(OC(=O)Nc2ccccc2F)c1 the Potency was inconclusive: 8.2 µM [activator, partial curve].
In the case of COC(=O)C1=C(c2ccc(F)cc2OCc2ccccc2)C[C@@H]2CC[C@H]1N2C(=O)NCCOc1ccccc1, the Potency was inconclusive: 20.6 µM [falling, single point].
In the case of Fc1ccccc1CNCCc1c[nH]c2ccccc12, the Potency was inconclusive: 32.6 µM [activator, single point].
For Cc1ccccc1N1C(=O)NC(=O)/C(=C\c2cc(Br)c(N3CCOCC3)o2)C1=O, the Potency was active: 16.4 µM.
In the case of N#CC1(c2ccccc2)CCN(C2CC(=O)N(c3ccc(F)cc3)C2=O)CC1 (configuration not stated), the “activity change, negative = inhibition” value was inactive: 13.8%.
With Cc1ccc(Cn2ccc(NC(=O)c3cc(-c4ccco4)on3)n2)cc1 the Potency was inconclusive: 11.6 µM [falling, partial curve].
For COC(=O)CCc1nc2c(C#N)c(-c3ccc(Cl)cc3)ccn2n1, the Potency was inconclusive: 29.1 µM [activator, partial curve, poor fit].
With CCOC(=O)c1ccccc1N the “activity change, negative = inhibition” value was inactive: 1.38%.
In the case of Cc1ccc2c(C)cc[n+](CCCS(=O)(=O)[O-])c2c1, the Potency was inconclusive: 20.6 µM [activator, partial curve].
In the case of COC(=O)C1=C(c2cccc3c2S(=O)(=O)c2ccccc2-3)C[C@@H]2CC[C@H]1N2C(=O)N1CCc2cc(OC)c(OC)cc2C1, the Potency was inconclusive: 16.4 µM [falling, partial curve, poor fit].
For CC1=CC2OC3CC4OC(=O)C=CC=CC(C(C)O)OCC(O)C(C)CC(=O)OCC2(CC1O)C4(C)C31CO1 (configuration not stated), the Potency was active: 0.058 µM.
With COc1cccc(NC(=O)Cn2cc(C(=O)c3ccccc3)c3ccccc32)c1 the Potency was inconclusive: 25.9 µM [falling, single point].
For O=C(NCCCn1ccnc1)C(Cl)(Cl)Cl, the “activity change, negative = inhibition” value was inactive: 0.204%.
In the case of COC(=O)C1=C(c2ccc3ccccc3c2)C[C@@H]2CC[C@H]1N2C(=O)NCCCOC(C)C, the Potency was inconclusive: 23.1 µM [falling, partial curve, poor fit].
For CCOC(=O)c1c(N)n(CCN2CCCCC2)c2nc3ccccc3nc12, the “activity change, negative = inhibition” value was inactive: 13.1%.
In the case of COC(=O)C1=C(c2ccccc2)C[C@@H]2CC[C@H]1N2C(=O)NC1CC1, the “activity change, negative = inhibition” value was inactive: 1.92%.
In the case of CCOP(=O)(c1ccccc1)C(O)c1ccc(F)cc1 (configuration not stated), the Potency was inconclusive: 29.1 µM [falling, single point].
In the case of CCc1ccc(N2C(=O)NC(=O)/C(=C/c3cccn3CCOc3ccc(C(C)CC)cc3)C2=O)cc1 (configuration not stated), the Potency was inconclusive: 6.51 µM [activator, single point].
For CN(C)c1ccc(C(=O)N/N=C/C23CC[C@@H](O)CC2(O)CC[C@@H]2[C@@H]3CCC3(C)C(C4=CC(=O)OC4)CCC23O)cc1 (some centres not stated), the Potency was active: 5.8 µM.
In the case of C[C@]12CCC(=O)C=C1CCC1C2CC[C@@]2(C)C1CC[C@]2(C)O (some centres not stated), the Potency was inconclusive: 4.61 µM [falling, partial curve, poor fit].
In the case of CN1CCN(c2ccc3c(c2)S(=O)(=O)c2ccccc2C3=O)CC1, the Potency was inconclusive: 5.8 µM [activator, partial curve].
With O=C(c1cc2cc(F)ccc2[nH]1)N1CCC2(CC1)OCCO2 the Potency was inconclusive: 16.4 µM [activator, partial curve, poor fit].
With COc1ccc(OCCn2cc(/C=C(\C#N)C(=O)NCc3ccco3)c3ccccc32)cc1 the Potency was inconclusive: 5.17 µM [falling, full curve, poor fit].
With COC(=O)C1=C(c2ccc(OC(F)(F)F)cc2)C[C@@H]2CC[C@H]1N2C(=O)NCCOc1ccccc1Cl the Potency was inconclusive: 23.1 µM [falling, single point].
For C[C@@H]1O[C@@H](O[C@@H]2C=C3CC[C@@H]4C(CC[C@]5(C)[C@@H](c6ccc(=O)oc6)CC[C@]45O)[C@@]3(C)CC2)[C@H](O)[C@H](O)[C@H]1O (some centres not stated), the Potency was active: 0.0231 µM.
For O=C(O)/C=C\C(=O)Nc1ccc(Oc2ccc(Br)cc2)cc1, the Potency was inconclusive: 29.1 µM [activator, single point].
In the case of Cc1[nH]c2ccccc2c1C(=O)C(=O)N1CC2CC(C1)c1cccc(=O)n1C2 (configuration not stated), the Potency was inconclusive: 29.1 µM [activator, single point].
With COC(=O)C1=C(c2ccc(OC)c(OC)c2)C[C@@H]2CC[C@H]1N2C(=O)NC1Cc2ccccc2C1 the Potency was inconclusive: 20.6 µM [activator, single point].
For Nc1ccc2c(c1)oc1ccccc12, the Potency was inconclusive: 9.2 µM [activator, partial curve].
With Cc1ccc(-n2c(O)c(C=NCCCn3ccnc3)c(=O)[nH]c2=O)cc1 the Potency was inconclusive: 7.31 µM [falling, full curve, poor fit].
With O=C(c1c[nH]cc1-c1ccccc1)c1cccc2ccccc12 the Potency was inconclusive: 29.1 µM [falling, single point].
For O=C(c1cc(C(=O)NCc2ccccc2)c(=O)n(Cc2ccccc2)c1)c1cc(Cl)ccc1O, the Potency was inconclusive: 16.4 µM [falling, partial curve, poor fit].
With COc1ccc(/C=N/N=C(/N)N[N+](=O)[O-])c(OC)c1 the Potency was inconclusive: 0.291 µM [activator, full curve, poor fit].
For CCC(=NCc1ccco1)c1c(O)n(C)c(=O)n(C)c1=O, the Potency was inconclusive: 29.1 µM [falling, single point].
In the case of Cc1ccc(-n2c(O)c(C=Nc3ccc(Br)cn3)c(=O)[nH]c2=O)cc1, the “activity change, negative = inhibition” value was inactive: -4.32%.
With Cc1cccc(-c2nc(CN3C(=O)CN=C(c4ccccc4)c4ccccc43)c(C)o2)c1 the Potency was inconclusive: 18.4 µM [falling, single point].
